Test results from US9487515B2, “Compounds modulating c-fms and/or c-kit activity and uses therefor” (Plexxikon Inc., priority 2006, dated 2016).
Some results were stated once for a whole list of compounds, not compound by compound.

Target: Fms (UniProt P07333)
Test: Fms assays of Examples 40 or 41 (AlphaScreen kinase assays at 10 and 100 μM ATP, 33P-ATP filter assay, RAW264.7 pFMS and M-NFS-60 M-CSF-stimulated proliferation)
Details: in at least one of the Fms assays described in Examples 40 or 41

## FC(F)(F)c1ccc(CNc2ccc(Cc3c[nH]c4ncccc34)cn2)cc1 [P-0003, [5-(1H-Pyrrolo[2,3-b]pyridin-3-ylmethyl)-pyridin-2-yl]-(4-trifluoromethyl-benzyl)-amine]
  IC50: < 1000 nM
